Experimental data from PubChem BioAssay AID248 (DTP/NCI, 2004).
The list is a part of this screen's results and no random one: it is rich in T/C values a quarter to a half above the control, in often repeated tests (any T/C) and in doses without a T/C. Further doses and runs are listed elsewhere. T/C: endpoint of the treated group in % of that of the vehicle group. Some doses have a count of surviving animals in place of a T/C: the source files T/C as zero there, which appears to mark a toxic dose or a test without result, not a measured value. Some survivor counts are full or nearly so, which does not show that the dose was tolerated: survival well below the control is almost never listed, so the zero probably covers shortened survival too. Survivors were counted at the toxicity check, usually on the fifth day, unless a day is given; later deaths do not show. Schedule codes are those of the source, taken here to give the interval after Q, in days (D) or hours (H), and the number of doses after X. Some schedule codes hold Z or #, which are not explained here. Some entries were tested several times; the values are given in rising order. Where survival is the endpoint, the PubChem record calls one and a half times the control and up active, and a quarter to a half above the control has no call in these data; cut-offs in other NCI protocols can differ.

Tested on: L1210 leukemia ip in BDF1 mice, survival T/C
Experiment: NCI In Vivo Anticancer Drug Screen. Data for tumor model L1210 Leukemia (intraperitoneal) in B6D2F1 (BDF1) mice
Details: T/C endpoint: mean survival time, higher T/C = longer survival
[1] = dose: 200.0 mg/kg/injection, schedule: Q01DX009 (ip), vehicle: saline with Tween-80
[2] = dose: 200.0 mg/kg/injection, schedule: Q04DX003 (ip), vehicle: saline with Tween-80
[3] = dose: 400.0 mg/kg/injection, schedule: Q01DX001 (ip), vehicle: saline
[4] = dose: 100.0 mg/kg/injection, schedule: Q01DX009 (ip), vehicle: saline with Tween-80
[5] = dose: 400.0 mg/kg/injection, schedule: Q04DX003 (ip), vehicle: saline with Tween-80
[6] = dose: 400.0 mg/kg/injection, schedule: Q04DX002 (ip), vehicle: Klucel (hydroxypropylcellulose) (HPC)

Q: How did the survivor count (dose: 100.0 mg/kg/injection, schedule: Q01DX009 (ip), vehicle: Klucel (hydroxypropylcellulose) (HPC)) turn out when Oc1ccccc1/C=N/c1ccccn1 was run?
A: 2 of 6

Q: COc1ccccc1/C=C/C(=O)c1ccccc1 was tested. Which survivor count [1] did it give?
A: 6 of 6

Q: Which survivor count (dose: 400.0 mg/kg/injection, schedule: Q01DX009 (ip), vehicle: saline with Tween-80) does the source give for CSCCC(NC(=O)c1ccccc1)C(N)=O (stereo unspecified) here?
A: 3 of 6

Q: What does the source list for CN(C)CCCN=C1Nc2ccccc2C(=NCCCN(C)C)Nc2ccccc21?
A: survivor count (dose: 100.0 mg/kg/injection, schedule: Q04DX003 (ip), vehicle: acid diluted with saline): 0 of 6; survivor count (dose: 200.0 mg/kg/injection, schedule: Q04DX003 (ip), vehicle: acid diluted with saline): 0 of 6; survivor count (dose: 400.0 mg/kg/injection, schedule: Q04DX003 (ip), vehicle: acid diluted with saline): 0 of 6

Q: NC(=S)N/N=C/c1ccccc1 was tested. Which survivor count (dose: 300.0 mg/kg/injection, schedule: Q01DX001 (ip), vehicle: other) did it give?
A: 2 of 6

Q: For O=C(OCCl)c1ccc(Cl)cc1Cl, which survivor count [2] is on record?
A: 6 of 6

Q: For CC1(C)CC(N)CC(C)(C)N1O, which survivor count (dose: 400.0 mg/kg/injection, schedule: Q04DX003 (ip), vehicle: saline) is on record?
A: 0 of 4

Q: With CC(C)(C)NCC1CCCC1=O (stereo unspecified) as the molecule, how does the survivor count (dose: 400.0 mg/kg/injection, schedule: Q04DX002 (ip), vehicle: gum acacia) read?
A: 0 of 3

Q: How did the survivor count (dose: 50.0 mg/kg/injection, schedule: Q01DX Z (ip), vehicle: saline) turn out when C/C=C(\C)C#N was run?
A: 0 of 6

Q: Which survivor count [3] does the source give for CN(C)CCSSCCN(C)C here?
A: 1 of 4

Q: With Cc1n(Cc2ccccc2)cc[n+]1C as the molecule, how does the survivor count (dose: 50.0 mg/kg/injection, schedule: Q01DX009 (ip), vehicle: saline) read?
A: 1 of 3

Q: What about the survivor count (dose: 50.0 mg/kg/injection, schedule: Q04DX002 (ip), vehicle: saline) of the same molecule?
A: 1 of 3 and 3 of 6

Q: And the survivor count (dose: 100.0 mg/kg/injection, schedule: Q04DX002 (ip), vehicle: saline)?
A: 0 of 3 and 1 of 6

Q: What about the survivor count (dose: 200.0 mg/kg/injection, schedule: Q04DX002 (ip), vehicle: saline) of the same molecule?
A: 0 of 3 and 0 of 6

Q: What about the survivor count (dose: 400.0 mg/kg/injection, schedule: Q04DX002 (ip), vehicle: saline) of the same molecule?
A: 0 of 3 and 0 of 6

Q: What does the source list for [O-]/[N+](=N\O)c1ccc(/[N+]([O-])=N\O)cc1?
A: survivor count [4]: 4 of 6; survivor count [1]: 0 of 6; survivor count (dose: 400.0 mg/kg/injection, schedule: Q01DX001 (ip), vehicle: saline with Tween-80): 0 of 6

Q: For Cc1cc(/C=C/c2ccc3cc(N(C)C)ccc3[n+]2C)c(C)n1-c1ccccc1, which survivor count (dose: 3.13 mg/kg/injection, schedule: Q01DX009 (ip), vehicle: saline with Tween-80) is on record?
A: 6 of 6

Q: What about the survivor count (dose: 6.25 mg/kg/injection, schedule: Q01DX009 (ip), vehicle: saline with Tween-80) of the same molecule?
A: 4 of 6

Q: And the survivor count (dose: 12.5 mg/kg/injection, schedule: Q01DX009 (ip), vehicle: saline with Tween-80)?
A: 0 of 6

Q: What about the survivor count (dose: 25.0 mg/kg/injection, schedule: Q01DX009 (ip), vehicle: saline with Tween-80) of the same molecule?
A: 0 of 6

Q: What about the survivor count (dose: 50.0 mg/kg/injection, schedule: Q01DX009 (ip), vehicle: saline with Tween-80) of the same molecule?
A: 0 of 6

Q: CC1(c2cccs2)NC(=O)N(Cl)C1=O (stereo unspecified) was tested. Which survivor count [2] did it give?
A: 6 of 6

Q: And the survivor count [5]?
A: 1 of 6

Q: For CC[NH-].[Cl][Pt+2][Cl].[NH2-], which T/C (dose: 1.5 mg/kg/injection, schedule: Q01DX009 (ip), vehicle: other) is on record?
A: 127 % of control

Q: And the T/C (dose: 6.0 mg/kg/injection, schedule: Q01DX001 (ip), vehicle: other)?
A: 131 % of control

Q: For O=P(O)(CP(=O)(c1ccccc1)c1ccccc1)c1ccccc1, which survivor count [6] is on record?
A: 0 of 3

Q: How did the survivor count (dose: 400.0 mg/kg/injection, schedule: Q01DX001 (ip), vehicle: carboxymethylcellulose (CMC)) turn out when Nn1nnc(-c2ccccc2)c1-c1ccccc1 was run?
A: 4 of 4

Q: With Cc1ccc(Cl)nn1 as the molecule, how does the survivor count [3] read?
A: 0 of 6

Q: For CCN(CC)CCNC1CCCCC1, which survivor count [2] is on record?
A: 1 of 6

Q: What about the survivor count [5] of the same molecule?
A: 0 of 6

Q: What does the source list for Cc1cc(CSC2=NCCN2)c(C)cc1CSC1=NCCN1?
A: survivor count (dose: 200.0 mg/kg/injection, schedule: Q04DX002 (ip), vehicle: saline with Tween-80): 0 of 3; survivor count (dose: 400.0 mg/kg/injection, schedule: Q04DX002 (ip), vehicle: saline with Tween-80): 0 of 3

Q: Which results are given for O=C(O)CNCCN1CC(=O)N(c2ccccc2)C1=S?
A: survivor count (dose: 200.0 mg/kg/injection, schedule: Q04DX002 (ip), vehicle: carboxymethylcellulose (CMC)): 6 of 6; survivor count (dose: 400.0 mg/kg/injection, schedule: Q01DX009 (ip), vehicle: carboxymethylcellulose (CMC)): 6 of 6

Q: With O=c1oc(-c2ccccc2Cl)nc2cc(Cl)ccc12 as the molecule, how does the survivor count [1] read?
A: 3 of 6

Q: COC(=O)C(CCCCN=Cc1ccccc1O)N=Cc1ccccc1O.[Cu] (stereo unspecified) was tested. Which survivor count [4] did it give?
A: 3 of 6

Q: And the survivor count [2]?
A: 0 of 6

Q: What about the survivor count [5] of the same molecule?
A: 0 of 6

Q: For Cc1ccc(S(=O)(=O)Nc2ncc([N+](=O)[O-])s2)cc1, which survivor count [4] is on record?
A: 6 of 6

Q: What about the survivor count [1] of the same molecule?
A: 6 of 6

Q: Nc1nc(N)c(N=O)c(Nc2ccc(O)cc2)n1 was tested. Which survivor count (dose: 100.0 mg/kg/injection, schedule: Q01DX Z (ip), vehicle: methylcellulose (MC)) did it give?
A: 6 of 6

Q: How did the survivor count (dose: 200.0 mg/kg/injection, schedule: Q01DX001 (ip), vehicle: steroid suspending solution) turn out when CN(N(P(c1ccccc1)c1ccccc1)P(c1ccccc1)c1ccccc1)P(c1ccccc1)c1ccccc1 was run?
A: 4 of 4

Q: What does the source list for O=C(Nc1cccc(O)c1)Nc1cc([N+](=O)[O-])ccc1F?
A: T/C (dose: 100.0 mg/kg/injection, schedule: Q04DX002 (ip), vehicle: Klucel (hydroxypropylcellulose) (HPC)): 96, 98, 103, 125 % of control; T/C (dose: 200.0 mg/kg/injection, schedule: Q04DX002 (ip), vehicle: Klucel (hydroxypropylcellulose) (HPC)): 95, 96, 97, 102 % of control; T/C [6]: 93, 100, 105, 118 % of control

Q: For O=C(CNC1=NCCN1)Nc1ccc(NC(=O)c2ccc(C(=O)Nc3ccc(NC(=O)CNC4=NCCN4)cc3)cc2)cc1, which T/C (dose: 20.0 mg/kg/injection, schedule: Q01DX Z (ip), vehicle: water) is on record?
A: 136 % of control

Q: How did the survivor count (dose: 300.0 mg/kg/injection, schedule: Q01DX001 (ip), vehicle: saline) turn out when CN(C)CCC(O)C(c1ccccc1)c1ccccc1 (stereo unspecified) was run?
A: 2 of 6
